Results: publication PMC5386496
These are yes or no findings as the source states them, for the method shown. Binding seen in cells or lysates may run through a third protein. Some results given as binding are weak or reduced against the parent protein; the word gives no strength. For some of these results: Where a sequence is shown, tags or fusion partners need not be part of it.

Protein sequences, listed by entry. Tags and fused reporters are not part of them.
UniProt P45973: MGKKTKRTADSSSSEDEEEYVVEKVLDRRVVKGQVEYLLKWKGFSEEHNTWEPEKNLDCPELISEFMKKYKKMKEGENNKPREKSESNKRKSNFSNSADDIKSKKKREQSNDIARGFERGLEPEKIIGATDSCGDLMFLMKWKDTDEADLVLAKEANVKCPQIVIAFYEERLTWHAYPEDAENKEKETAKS
UniProt Q9UPY3: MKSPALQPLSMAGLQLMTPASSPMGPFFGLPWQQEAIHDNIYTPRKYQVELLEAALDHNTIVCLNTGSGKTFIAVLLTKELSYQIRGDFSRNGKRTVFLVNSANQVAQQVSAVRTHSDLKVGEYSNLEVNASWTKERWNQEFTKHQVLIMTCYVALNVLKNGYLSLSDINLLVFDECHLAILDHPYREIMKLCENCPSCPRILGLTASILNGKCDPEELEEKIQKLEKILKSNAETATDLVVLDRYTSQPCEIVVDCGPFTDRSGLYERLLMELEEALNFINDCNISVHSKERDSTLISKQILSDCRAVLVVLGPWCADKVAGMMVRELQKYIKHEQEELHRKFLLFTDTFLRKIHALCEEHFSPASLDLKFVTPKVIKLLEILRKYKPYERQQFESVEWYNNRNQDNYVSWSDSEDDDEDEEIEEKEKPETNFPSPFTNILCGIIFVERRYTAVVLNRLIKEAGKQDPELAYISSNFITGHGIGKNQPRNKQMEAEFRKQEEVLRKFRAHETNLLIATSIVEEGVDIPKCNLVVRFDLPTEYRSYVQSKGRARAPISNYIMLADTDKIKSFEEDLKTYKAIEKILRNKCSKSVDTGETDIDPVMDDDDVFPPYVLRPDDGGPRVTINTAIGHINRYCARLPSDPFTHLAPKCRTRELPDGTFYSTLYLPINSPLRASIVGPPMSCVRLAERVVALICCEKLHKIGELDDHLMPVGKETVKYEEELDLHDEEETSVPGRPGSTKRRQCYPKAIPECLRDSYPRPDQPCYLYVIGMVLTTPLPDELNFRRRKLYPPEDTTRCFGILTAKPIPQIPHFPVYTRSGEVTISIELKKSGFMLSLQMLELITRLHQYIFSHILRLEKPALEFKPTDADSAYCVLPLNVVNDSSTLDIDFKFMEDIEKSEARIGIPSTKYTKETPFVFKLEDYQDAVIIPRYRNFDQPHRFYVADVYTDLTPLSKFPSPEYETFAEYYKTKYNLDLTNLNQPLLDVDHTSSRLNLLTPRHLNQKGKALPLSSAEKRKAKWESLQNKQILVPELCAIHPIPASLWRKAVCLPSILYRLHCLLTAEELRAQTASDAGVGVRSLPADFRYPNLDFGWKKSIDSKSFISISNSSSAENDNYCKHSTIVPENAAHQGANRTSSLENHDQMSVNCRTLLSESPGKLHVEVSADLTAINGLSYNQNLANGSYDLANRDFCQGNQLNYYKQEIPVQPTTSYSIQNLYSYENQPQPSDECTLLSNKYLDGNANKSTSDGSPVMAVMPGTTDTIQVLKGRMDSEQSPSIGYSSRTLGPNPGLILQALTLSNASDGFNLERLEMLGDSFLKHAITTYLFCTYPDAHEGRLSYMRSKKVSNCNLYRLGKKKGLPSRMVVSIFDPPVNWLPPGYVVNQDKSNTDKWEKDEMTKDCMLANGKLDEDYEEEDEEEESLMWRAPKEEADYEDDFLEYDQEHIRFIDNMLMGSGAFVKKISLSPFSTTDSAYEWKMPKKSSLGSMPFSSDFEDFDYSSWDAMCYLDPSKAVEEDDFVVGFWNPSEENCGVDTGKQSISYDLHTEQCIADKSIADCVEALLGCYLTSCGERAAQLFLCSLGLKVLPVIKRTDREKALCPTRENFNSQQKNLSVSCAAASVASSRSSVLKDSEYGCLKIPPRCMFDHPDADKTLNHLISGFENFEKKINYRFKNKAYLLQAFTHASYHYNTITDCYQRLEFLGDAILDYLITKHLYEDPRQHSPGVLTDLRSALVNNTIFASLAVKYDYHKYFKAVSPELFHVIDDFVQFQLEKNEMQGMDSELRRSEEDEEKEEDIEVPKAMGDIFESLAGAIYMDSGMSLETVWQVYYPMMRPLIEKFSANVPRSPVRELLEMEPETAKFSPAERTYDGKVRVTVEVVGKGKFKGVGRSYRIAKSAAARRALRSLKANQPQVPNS

Tests used:
[1] = molecular target: heterochromatin protein 1α (HP1α), endogenous in Hucct1 cells (human (endogenous in Hucct1)) (UniProt P45973); experiment: co-IP; nuclear extracts of Hucct1 cells, endogenous proteins, anti-HP1α (or anti-Dicer) antibodies, western blot; IgG as control
[2] = molecular target: GST-HP1α fusion protein (heterochromatin protein 1α) (UniProt P45973); experiment: pull-down; GST fusion protein held on glutathione-Sepharose 4B beads, HEK293 cell extracts added, treated with RNase A, 3 h under rotation at 4 °C, washed with ice-cold PBS, western blot with anti-Dicer (or anti-HP1α); only the target purified
GST-Dicer fusion protein = GST-Dicer fusion protein (UniProt Q9UPY3); experiment: as above
[3] = molecular target: heterochromatin protein 1α (HP1α), endogenous in Hucct1 cells (human (endogenous in Hucct1)) (UniProt P45973); experiment: co-IP; Hucct1 cells, endogenous proteins, 2.5 μg anti-HP1α antibodies and Protein A+G Agarose beads, western blot with anti-Dnmt1, anti-Dnmt3a, anti-Dnmt3b, anti-SUV39H1 and anti-H3K9me3; IgG as control

Dicer, endogenous in Hucct1 cells (from UniProt Q9UPY3 1-1922)
binding [1]: binds

Dicer, endogenous in HEK293 cells (from UniProt Q9UPY3 1-1922)
binding [2]: binds

heterochromatin protein 1α (HP1α), endogenous in HEK293 cells (from UniProt P45973 1-191)
binding (GST-Dicer fusion protein): binds

B1: histone methyltransferase SUV39H1, endogenous in Hucct1 cells (enzyme, UniProt O43463 1-412)
chain: MAENLKGCSVCCKSSWNQLQDLCRLAKLSCPALGISKRNLYDFEVEYLCDYKKIREQEYYLVKWRGYPDSESTWEPRQNLKCVRILKQFHKDLERELLRRHHRSKTPRHLDPSLANYLVQKAKQRRALRRWEQELNAKRSHLGRITVENEVDLDGPPRAFVYINEYRVGEGITLNQVAVGCECQDCLWAPTGGCCPGASLHKFAYNDQGQVRLRAGLPIYECNSRCRCGYDCPNRVVQKGIRYDLCIFRTDDGRGWGVRTLEKIRKNSFVMEYVGEIITSEEAERRGQIYDRQGATYLFDLDYVEDVYTVDAAYYGNISHFVNHSCDPNLQVYNVFIDNLDERLPRIAFFATRTIRAGEELTFDYNMQVDPVDMESTRMDSNFGLAGLPGSPKKRVRIECKCGTESCRKYLF
binding [3]: binds
